Laboratory results taken from US11130780B2, “Inhibitors of growth factor activation enzymes” (Washington University, priority 2015, dated 2021).
Part of at least one peptide drawing is inferred or uncertain, most often the ends. At least one structure is not confirmed: it was looked up by name or label, or the drawing left a doubt. Starred links: 1 amine or outer side, 2 acyl side, 3 side chain; linkers in the order of their positions; H or OH if unused. Non-standard residues stand in square brackets, D forms with d. Residues, ends and D or L forms follow the SMILES beside them. X1 = N=C(N)NCCC[C@H](N[*:1])C(=O)c1nc2ccc(C(=O)[*:2])cc2s1

Each compound was assayed against Trypsin (assay: Trypsin selectivity assay). Conditions: Table 6.2; headed Fluorogenic Assay.
Type: biochemical
`CC(=O)N[C@@H](CO)C(=O)N[C@@H](CCCCN)C(=O)N[C@@H](CC(C)C)C(=O)N[C@@H](CCCNC(=N)N)C(=O)c1nc2ccc(C(=O)N[C@H](C(N)=O)C(C)C)cc2s1` [Compound 7116, Ac-SKLR(SEQ ID NO: 10)-Kbt-Val— NH2] (Ac-SKL[X1]V-NH2) was tested, and the Ki was 340 pM. `CC(C)C[C@H](NC(=O)[C@@H](N)Cc1c[nH]c2ccccc12)C(=O)N[C@@H](CCCNC(=N)N)C(=O)c1nc2ccccc2s1` [Compound 7170, H-WLR-kbt] was tested, and the Ki was 50 pM. `CC(C)C[C@H](NC(=O)[C@@H](N)CCCNC(=N)N)C(=O)N[C@@H](CCCNC(=N)N)C(=O)c1nc2ccccc2s1` [Compound 7171, H-RLR-kbt] gave a Ki of 130 pM. `CC(C)C[C@H](NC(=O)OCC1c2ccccc2-c2ccccc21)C(=O)N[C@@H](CCCNC(=N)N)C(=O)c1nc2ccccc2s1` [Compound 7185-11, Fmoc-LR-kbt] gave a Ki of 19800 pM.
